Results on one molecule are retold here after patent US20220235109A1.

Chains of the proteins cited; added tags and fusions are not shown. Residues count along the entry.
UniProt Q15116, residues 25-288: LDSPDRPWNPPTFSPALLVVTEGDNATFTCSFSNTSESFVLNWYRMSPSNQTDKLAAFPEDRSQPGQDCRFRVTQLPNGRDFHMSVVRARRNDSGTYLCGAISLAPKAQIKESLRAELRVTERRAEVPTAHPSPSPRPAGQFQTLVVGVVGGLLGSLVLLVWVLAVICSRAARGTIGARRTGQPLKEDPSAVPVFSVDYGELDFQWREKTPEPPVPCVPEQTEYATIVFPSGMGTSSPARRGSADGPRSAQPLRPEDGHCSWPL

The assay has as its target PD1 expressed on cell surface (UniProt Q15116). The experiment in a line: FACS on PD-1-expressing cells.

Results are given in words; binding and its absence hold for the method and conditions named. Some entries that bind do so weakly or less than the wild type.

B1: P-0795 (antibody, human IgG1, kappa, V domains shown)
VH: EVQLVESGGGLVKPGGSLRLSCAASGFTFSSYDMSWVRQAPGKGLEWVATISGGGSYTYYPDSVKGRFTISRDNAKNSLYLQMNSLRAEDTAVYYCASPDSSGVAYWGQGTLVTVSS
VL: DIVMTQSPLSLPVTPGEPASITCKASQDVETVVAWYLQKPGQSPRLLIYWASTRHTGVPDRFSGSGSGTDFTLKISRVEAEDVGVYYCQQYSRYPWTFGQGTKLEIKR
With B1, the binding result is “binds”.
